# Source: patent US9321737B2, “CDK8-CDK19 selective inhibitors and their use in anti-metastatic and chemopreventative methods for cancer” (SENEX BIOTECHNOLOGY INC, priority 2012, dated 2016)
# Amino acid sequences for entries named in this document (tags omitted).
# UniProt P50750, whole entry: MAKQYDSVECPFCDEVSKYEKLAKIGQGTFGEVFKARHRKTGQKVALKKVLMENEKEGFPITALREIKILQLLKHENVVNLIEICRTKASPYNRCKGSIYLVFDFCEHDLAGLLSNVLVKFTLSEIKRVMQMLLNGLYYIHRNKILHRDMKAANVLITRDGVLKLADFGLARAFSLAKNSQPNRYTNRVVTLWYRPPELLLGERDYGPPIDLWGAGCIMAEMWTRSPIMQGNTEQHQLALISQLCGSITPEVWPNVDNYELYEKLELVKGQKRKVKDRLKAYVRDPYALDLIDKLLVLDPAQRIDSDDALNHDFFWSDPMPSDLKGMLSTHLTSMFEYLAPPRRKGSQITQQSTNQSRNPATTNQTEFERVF
# For at least one compound, name, drawing or mass did not settle the structure.
# Target: CDK9 (Homo sapiens, UniProt P50750)
# Test: Kd determination, control CDK9
# Type: binding
# Settings: control CDK, in duplicate
compound,measurement,value
CN1CCN(C(=O)c2ccc3cc(CCNc4ncnc5ccc(C#N)cc45)ccc3c2)CC1 [SNX2-1-165],Kd determination for CDK9,not significantly inhibited
